Data reported in the supplement of paper PMC8728848.
The other results are listed elsewhere or left out.

How the values were obtained:
Assay in all cases: glycan array binding signal (z-score within array); higher = stronger binding
Details in all cases: glycan notation: IUPAC condensed, linker removed
Gal(b1-2)Gal = biological target: Gal(b1-2)Gal
How it was run: (§1)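 Negative Z-scores can be read as non-binding. The Z-score is calculated within each array and then averaged across arrays of one protein sequence at different concentrations or buffers and across linkers. Arrays, 3228 in all, were curated from the Consortium for Functional Glycomics database and kept only where the protein sequence was available.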

Gal(b1-3)Gal = biological target: Gal(b1-3)Gal
How it was run: as §1

Gal(b1-3)Gal(b1-4)GlcNAc = biological target: Gal(b1-3)Gal(b1-4)GlcNAc
How it was run: as §1

Gal(b1-3)GalNAc = biological target: Gal(b1-3)GalNAc
How it was run: as §1

[1] = biological target: Gal(b1-3)GalNAc(a1-3)[Fuc(a1-2)]Gal(b1-4)Glc
How it was run: as §1

[2] = biological target: Gal(b1-3)GalNAc(a1-3)[Fuc(a1-2)]Gal(b1-4)GlcNAc
How it was run: as §1

Gal(b1-3)GalNAc(b1-3)Gal = biological target: Gal(b1-3)GalNAc(b1-3)Gal
How it was run: as §1

[3] = biological target: Gal(b1-3)GalNAc(b1-3)Gal(a1-4)Gal(b1-4)Glc
How it was run: as §1

[4] = biological target: Gal(b1-3)GalNAc(b1-4)Gal(b1-4)Glc
How it was run: as §1

[5] = biological target: Gal(b1-3)GalNAc(b1-4)[Neu5Ac(a2-3)]Gal(b1-4)Glc
How it was run: as §1

Gal(b1-3)GlcNAc = biological target: Gal(b1-3)GlcNAc
How it was run: as §1

[6] = biological target: Gal(b1-3)GlcNAc(a1-3)Gal(b1-4)GlcNAc
How it was run: as §1

[7] = biological target: Gal(b1-3)GlcNAc(a1-6)Gal(b1-4)GlcNAc
How it was run: as §1

Gal(b1-3)GlcNAc(b1-2)Man = biological target: Gal(b1-3)GlcNAc(b1-2)Man
How it was run: as §1

[8] = biological target: Gal(b1-3)GlcNAc(b1-2)Man(a1-3)[Gal(b1-3)GlcNAc(b1-2)Man(a1-6)]Man(b1-4)GlcNAc(b1-4)GlcNAc
How it was run: as §1

[9] = biological target: Gal(b1-3)GlcNAc(b1-2)Man(a1-3)[Gal(b1-3)GlcNAc(b1-2)Man(a1-6)]Man(b1-4)GlcNAc(b1-4)[Fuc(a1-6)]GlcNAc
How it was run: as §1

[10] = biological target: Gal(b1-3)GlcNAc(b1-2)Man(a1-3)[GlcNAc(b1-4)][Gal(b1-3)GlcNAc(b1-2)Man(a1-6)]Man(b1-4)GlcNAc(b1-4)GlcNAc
How it was run: as §1

[11] = biological target: Gal(b1-3)GlcNAc(b1-2)[Gal(b1-3)GlcNAc(b1-6)]Man(a1-6)[Gal(b1-3)GlcNAc(b1-2)Man(a1-3)]Man(b1-4)GlcNAc(b1-4)GlcNAc
How it was run: as §1

[12] = biological target: Gal(b1-3)GlcNAc(b1-3)Gal(b1-3)GlcNAc
How it was run: as §1

[13] = biological target: Gal(b1-3)GlcNAc(b1-3)Gal(b1-4)Glc
How it was run: as §1

[14] = biological target: Gal(b1-3)GlcNAc(b1-3)Gal(b1-4)GlcNAc
How it was run: as §1

[15] = biological target: Gal(b1-3)GlcNAc(b1-3)Gal(b1-4)GlcNAc(b1-2)Man(a1-3)[Gal(b1-3)GlcNAc(b1-3)Gal(b1-4)GlcNAc(b1-2)Man(a1-6)]Man(b1-4)GlcNAc(b1-4)GlcNAc
How it was run: as §1

[16] = biological target: Gal(b1-3)GlcNAc(b1-3)Gal(b1-4)GlcNAc(b1-2)[Gal(b1-3)GlcNAc(b1-3)Gal(b1-4)GlcNAc(b1-6)]Man(a1-6)[Gal(b1-3)GlcNAc(b1-3)Gal(b1-4)GlcNAc(b1-2)Man(a1-3)]Man(b1-4)GlcNAc(b1-4)[Fuc(a1-6)]GlcNAc
How it was run: as §1

[17] = biological target: Gal(b1-3)GlcNAc(b1-3)Gal(b1-4)GlcNAc(b1-3)Gal(b1-4)GlcNAc(b1-2)[Gal(b1-3)GlcNAc(b1-3)Gal(b1-4)GlcNAc(b1-3)Gal(b1-4)GlcNAc(b1-6)]Man(a1-6)[Gal(b1-3)GlcNAc(b1-3)Gal(b1-4)GlcNAc(b1-3)Gal(b1-4)GlcNAc(b1-2)Man(a1-3)]Man(b1-4)GlcNAc(b1-4)[Fuc(a1-6)]GlcNAc
How it was run: as §1

[18] = biological target: Gal(b1-3)GlcNAc(b1-3)Gal(b1-4)GlcNAc(b1-6)[Gal(b1-3)GlcNAc(b1-3)]Gal(b1-4)Glc
How it was run: as §1

[19] = biological target: Gal(b1-3)GlcNAc(b1-3)Gal(b1-4)[Fuc(a1-3)]GlcNAc
How it was run: as §1

[20] = biological target: Gal(b1-3)GlcNAc(b1-3)Gal(b1-4)[Fuc(a1-3)]GlcNAc(b1-6)[Gal(b1-3)GlcNAc(b1-3)]Gal(b1-4)Glc
How it was run: as §1

[21] = biological target: Gal(b1-3)GlcNAc(b1-3)GalNAc
How it was run: as §1

[22] = biological target: Gal(b1-3)GlcNAc(b1-6)Gal(b1-4)GlcNAc
How it was run: as §1

[23] = biological target: Gal(b1-3)GlcNAc(b1-6)GalNAc
How it was run: as §1

[24] = biological target: Gal(b1-3)GlcNAc(b1-6)[Gal(b1-3)]GalNAc
How it was run: as §1

Gal(b1-3)GlcNAc6S = biological target: Gal(b1-3)GlcNAc6S
How it was run: as §1

[25] = biological target: Gal(b1-3)[Fuc(a1-4)]GlcNAc
How it was run: as §1

[26] = biological target: Gal(b1-3)[Fuc(a1-4)]GlcNAc(b1-2)Man
How it was run: as §1

[27] = biological target: Gal(b1-3)[Fuc(a1-4)]GlcNAc(b1-2)Man(a1-3)[Gal(b1-3)[Fuc(a1-4)]GlcNAc(b1-2)Man(a1-6)]Man(b1-4)GlcNAc(b1-4)[Fuc(a1-6)]GlcNAc
How it was run: as §1

[28] = biological target: Gal(b1-3)[Fuc(a1-4)]GlcNAc(b1-3)Gal(b1-3)[Fuc(a1-4)]GlcNAc
How it was run: as §1

[29] = biological target: Gal(b1-3)[Fuc(a1-4)]GlcNAc(b1-3)Gal(b1-4)[Fuc(a1-3)]GlcNAc
How it was run: as §1

[30] = biological target: Gal(b1-3)[Fuc(a1-4)]GlcNAc(b1-6)GalNAc
How it was run: as §1

[31] = biological target: Gal(b1-3)[GlcNAc(b1-6)]GalNAc
How it was run: as §1

[32] = biological target: Gal(b1-3)[Neu5Ac(a2-6)]GalNAc
How it was run: as §1

[33] = biological target: Gal(b1-3)[Neu5Ac(a2-6)]GlcNAc(b1-4)Gal(b1-4)Glc
How it was run: as §1

[34] = biological target: Gal(b1-3)[Neu5Ac(b2-6)]GalNAc
How it was run: as §1

Gal(b1-4)Gal = biological target: Gal(b1-4)Gal
How it was run: as §1

[35] = biological target: Gal(b1-4)GalNAc(a1-3)[Fuc(a1-2)]Gal(b1-4)GlcNAc
How it was run: as §1

[36] = biological target: Gal(b1-4)GalNAc(b1-3)[Fuc(a1-2)]Gal(b1-4)GlcNAc
How it was run: as §1

B1: EUL D1A second (Oryza sativa) (protein)
chain: GAATACTIGGVPVHTVRVFSAAGEDYCLTVRNGTACLAPKNPRDDYQHWIKDMRHSNKIRDEEGYPAFALVNKVTGEAIKHSTGQGHPVKLVPYNPEYQDESVLWTESKDVGKGFRCIRMVNNIYLNFDAFHGDKDHGGIHDGTEIVLWKWCEGDNQRWKILPWILEQKLISEEDLNSAVDHHHHHH
For B1, the “glycan array binding signal (z-score)” value (Gal(b1-2)Gal) was -0.669, the “glycan array binding signal (z-score)” value (Gal(b1-3)Gal) was -0.342 and the “glycan array binding signal (z-score)” value (Gal(b1-3)Gal(b1-4)GlcNAc) was -0.765. The “glycan array binding signal (z-score)” value (Gal(b1-3)GalNAc) was -0.524, the “glycan array binding signal (z-score)” value [1] was 0.165 and the “glycan array binding signal (z-score)” value [2] was -0.273. For the same binder, the “glycan array binding signal (z-score)” value (Gal(b1-3)GalNAc(b1-3)Gal) was -0.449, the “glycan array binding signal (z-score)” value [3] was 2.08 and the “glycan array binding signal (z-score)” value [4] was -0.561. For the same binder, the “glycan array binding signal (z-score)” value [5] was 0.005, the “glycan array binding signal (z-score)” value (Gal(b1-3)GlcNAc) was -0.548 and the “glycan array binding signal (z-score)” value [6] was -0.393. The “glycan array binding signal (z-score)” value [7] was 0.922, the “glycan array binding signal (z-score)” value (Gal(b1-3)GlcNAc(b1-2)Man) was 1.1 and the “glycan array binding signal (z-score)” value [8] was 0.654. For the same binder, the “glycan array binding signal (z-score)” value [9] was -0.425, the “glycan array binding signal (z-score)” value [10] was -0.68 and the “glycan array binding signal (z-score)” value [11] was -0.197. The “glycan array binding signal (z-score)” value [12] was 1.27, the “glycan array binding signal (z-score)” value [13] was -0.887 and the “glycan array binding signal (z-score)” value [14] was 0.289. The “glycan array binding signal (z-score)” value [15] was -0.889, the “glycan array binding signal (z-score)” value [16] was 4.86 and the “glycan array binding signal (z-score)” value [17] was 4.47. The “glycan array binding signal (z-score)” value [18] was -0.233, the “glycan array binding signal (z-score)” value [19] was -1.35 and the “glycan array binding signal (z-score)” value [20] was -0.953. The “glycan array binding signal (z-score)” value [21] was -1.77, the “glycan array binding signal (z-score)” value [22] was -0.044 and the “glycan array binding signal (z-score)” value [23] was 0.907. For the same binder, the “glycan array binding signal (z-score)” value [24] was 1.99, the “glycan array binding signal (z-score)” value (Gal(b1-3)GlcNAc6S) was -0.739 and the “glycan array binding signal (z-score)” value [25] was -1.46. The “glycan array binding signal (z-score)” value [26] was 0.403, the “glycan array binding signal (z-score)” value [27] was 1.94 and the “glycan array binding signal (z-score)” value [28] was -1.39. For the same binder, the “glycan array binding signal (z-score)” value [29] was -0.907, the “glycan array binding signal (z-score)” value [30] was 0.174 and the “glycan array binding signal (z-score)” value [31] was 0.344. The “glycan array binding signal (z-score)” value [32] was -0.756, the “glycan array binding signal (z-score)” value [33] was -0.735 and the “glycan array binding signal (z-score)” value [34] was -0.858. For the same binder, the “glycan array binding signal (z-score)” value (Gal(b1-4)Gal) was 3.37, the “glycan array binding signal (z-score)” value [35] was -0.663 and the “glycan array binding signal (z-score)” value [36] was -1.29.
